Source: publication doi:10.1101/2020.02.14.950204

T1: BRCA2 and MEILB2-associated protein1 (BRME1) (mouse (endogenous in testis)) (UniProt Q6DIA7)
T1 sequence: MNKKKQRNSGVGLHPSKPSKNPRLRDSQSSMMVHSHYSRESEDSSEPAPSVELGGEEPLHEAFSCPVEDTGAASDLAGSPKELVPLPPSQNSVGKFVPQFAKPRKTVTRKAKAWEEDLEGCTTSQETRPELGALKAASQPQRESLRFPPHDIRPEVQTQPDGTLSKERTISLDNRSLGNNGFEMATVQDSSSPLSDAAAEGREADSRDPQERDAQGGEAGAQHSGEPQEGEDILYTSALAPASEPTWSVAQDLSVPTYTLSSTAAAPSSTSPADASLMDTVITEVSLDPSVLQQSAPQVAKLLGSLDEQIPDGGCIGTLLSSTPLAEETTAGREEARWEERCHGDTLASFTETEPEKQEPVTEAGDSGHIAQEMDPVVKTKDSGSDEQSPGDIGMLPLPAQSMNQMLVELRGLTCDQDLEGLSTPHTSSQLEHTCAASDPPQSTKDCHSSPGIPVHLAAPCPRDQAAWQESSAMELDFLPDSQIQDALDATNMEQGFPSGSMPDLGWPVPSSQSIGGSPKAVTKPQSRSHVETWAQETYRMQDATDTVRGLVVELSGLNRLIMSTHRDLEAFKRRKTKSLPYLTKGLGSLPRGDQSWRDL

T2: BRCA2 and MEILB2-associated protein1 (BRME1) (mouse (endogenous in testis)), Q6DIA7
T2 chain: T1 sequence

B1: MEILB2/HSF2BP (protein, UniProt Q9D4G2 1-338)
chain: MAATVGDGSGTEEACRNMESKEEFVKVRKKDLERLTTEVMQIRDFLPRILNGELLESFQKLKMVEKNLERKEQELEQLIMDREHFKARLETAQADSGREKKEKLALRQQLNEAKQQLLQQAEYCTQMGAVTCTLLWGVSSSEEVVKTILGGDKALKFFNITGQTMESFVKSLDGDVKEVDSDENQFVFALAGIVTNVAAIACGREFLVNSSRVLLDTMLQLLGDLKPGQCTKLKVLMLMSLYNVSINSKGLKYITESPGFIPLLWWLLSDPDAEVCLHTLRLIQSVVLEPDVFSKVASELQSSLPLQRILAMSKSRNSHLQSAAQELLEDLRALDCNV
B2: RPA1, Q8VEE4 1-623 (protein)
chain: MVGHLSEGAIEVMIQQENTSIKPILQVINIRPISTGNRSPRYRLLMSDGLNTLSSFMLATQLNTLVEGGQLASNCVCQVHKFIVNTLKDGRKVVVLMDLEVMKSAEDVGLKIGNPVPYNEGYGQQQQQQQQQQQQAVPSPASAATPPASKPQPQNGSLGMGSTAAKAYGASKPFGKPAGTGLLQPSGGTQSKVVPIASLTPYQSKWTICARVTNKSQIRTWSNSRGEGKLFSLELVDESGEIRATAFNEQVDKFFPLIEVNKVYYFSKGALKIANKQFSAVKNDYEMTFNNETSVLPCEDGHHLPTVQFDFTGIGDLESKAKDALVDIIGICKSYEDSIKITVKSNNREVAKRNIYLMDMSGKVVTTTLWGEDADKFDGSRQPVMAIKGARVSDFGGRSLSVLSSSTVIVNPDIPEAYKLRGWFDSEGQALDGVSISDHRSGGAGGGNTNWKTLHEAKSENLGQGDKADYFSTVAAVVFLRKENCMYQACPTQDCNKKVIDQQNGLYRCEKCDREFPNFKYRMILSANIADFQENQWVTCFQESAEAILGQNTMYLGELKEKNEQAFEEVFQNANFRSFTFRIRVKLETYNDESRIKATVMDVKPVDFRDYGRRLIANIRKNM
B3: MEIOB, Q9D513 1-470 (protein)
chain: MAKFFALKNFTALSDLHPNMANLKIIGIVIGKTDVKGFPDRKNIGSERYTFSFTIRDSPCHFVNVSSWGSEDYIRSLSESFRVAECVIIENPLIQRKDTEREEKFSPATPSNYKLLLSENHSMVKVCSPYEVDTKLLSLIHLPVKESRDYYSLADIVANGHSLDGRIINVLAAVRSVGEPKYFTTSDRRKGQRCEVKLFDETEPSFTMTCWDNESILLAQSWMARETVIFASDVRINFNKFQNCMAATVISKTIITVNPDTPEANILLNYIRENKETNVADEIDSYLKESVNLNTIVDVYTVEQLKVKALKSEGKADPFYGILYAYISTLNIDDETTKVVRNRCSSCGYIVNEASNTCTICNQDSSRLKSFFLSFDVLVDLTDHTGTLHSCSLSGSIAEETLGCTINEFLTMTSEQKTKLKWQLLLERSKIYLKLILSHRARGGLKVTILSCKLADPTEASRNLARQGHT

Legend:
[1] = biological target: T1, BRCA2 and MEILB2-associated protein1 (BRME1) (mouse (endogenous in testis)); assay: affinity purification with mass spectrometry
[2] = biological target: T2, BRCA2 and MEILB2-associated protein1 …; assay: affinity purification with mass spectrometry; settings: remark: other sources report otherwise

Binder	binding [1]	binding [2]
B1	binds	–
B2	–	binds
B3	–	binds

No constants are given. Whether binding was seen depends on the method and setting. In cells and extracts the contact can be indirect. Here binding means that the protein was enriched with, or labelled near, the bait; the list need not be complete.
